Reference: PubChem BioAssay AID602196 (INSERM, 2012)
Purpose: 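Knock-downs that protect lung cancer cells from cisplatin or sensitise them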. Cell system: human A549 lung cancer cells. Knock-down reagent: siRNA pair against human genes. Timing: 48 h transfection before cisplatin; time from cisplatin to read-out not stated. Treatment: cisplatin at a dose killing half of control-siRNA cells; exact dose and duration not given. Measured: 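Cisplatin cell death as a shift from the 50% death seen with control siRNA; siRNAs toxic or growth-blocking alone scored 0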. Scale: two-siRNA summed score (-2 to +2): higher = both siRNAs protect from cisplatin killing; -2 means both sensitise; mean protection from cisplatin (shift in death) and protection from cisplatin (shift in death), siRNA C and protection from cisplatin (shift in death), siRNA D: higher = protection from cisplatin killing. Call rule: 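Each siRNA scores 0 if harmful alone by LDH or WST-1, otherwise +1 if it reduces and -1 if it increases cisplatin killing; a gene is active when both siRNAs agree (sum +2 or -2)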. Calls: active = both siRNAs shift cisplatin killing the same way; inactive = no consistent shift, or siRNA harmful alone.
The deposit covers about 23,000 reagents; shown is an unselected part. 455 of them (2%) count as active. 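Active includes both protection and sensitisation; some change values fall well beyond the stated -50 to +50 range.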 Entries without a mark were called inactive. Not given: the amount of reagent.

Target gene	two-siRNA summed score (-2 to +2)	mean protection from cisplatin (shift in death) (%)	protection from cisplatin (shift in death), siRNA C (%)	protection from cisplatin (shift in death), siRNA D (%)
RASSF9	-1	-9.9	-0.6	-19.3
TNFSF10	0	-7.3	18.3	-33
NOTO	0	-8.9	-12.6	-5.2
GAL3ST4	0	2.7	2.3	3.1
BMP15	-1	-8.9	-19.3	1.5
RAB17	-1	-0.3	-11.3	10.8
SCNN1G	0	0.2	-8.8	9.2
CCDC8	0	5.8	18.3	-6.7
EYS	-1	-11.7	-20.5	-2.8
PRR16	0	11.3	4.5	18.1
RD3	1	17.8	15.3	20.4
ZNF780B	0	13.1	13.3	12.9
FCHO1	0	0.4	0.2	0.7
LOC390258	0	25.3	10.1	40.5
LOC388929	0	3.4	-0.9	7.8
TMEM164	0	7.3	10	4.6
LOC440870	0	9.2	9	9.4
GALC	0	-2	3.3	-7.3
TOX4P1	1	12.5	14.8	10.2
RMND5B	0	5.1	4.7	5.4
TFAP2E	0	6.2	7	5.4

Ordered by “protection from cisplatin (shift in death), siRNA D (%)” (lowest first): some entries from above
Target gene	two-siRNA summed score (-2 to +2)	mean protection from cisplatin (shift in death) (%)	protection from cisplatin (shift in death), siRNA C (%)	protection from cisplatin (shift in death), siRNA D (%)
CCDC8	0	5.8	18.3	-6.7
NOTO	0	-8.9	-12.6	-5.2
EYS	-1	-11.7	-20.5	-2.8
BMP15	-1	-8.9	-19.3	1.5
GAL3ST4	0	2.7	2.3	3.1
SCNN1G	0	0.2	-8.8	9.2
RAB17	-1	-0.3	-11.3	10.8
PRR16	0	11.3	4.5	18.1

The listing continues.
Target gene	two-siRNA summed score (-2 to +2)	mean protection from cisplatin (shift in death) (%)	protection from cisplatin (shift in death), siRNA C (%)	protection from cisplatin (shift in death), siRNA D (%)
SLC39A14	0	12.7	15.2	10.2
UGT1A6	1	10.2	19.4	1
RTBDN	0	3.2	-3.3	9.7
TTC12	0	12.8	21.4	4.1
PABIR3	0	1.3	5.8	-3.3
OR4P4	0	5.4	5.3	5.5
LOC389856	0	2.1	8.4	-4.3
FAHD2A	0	8.4	13.1	3.7
LOC387992	0	1.2	6.6	-4.2
SCAMP2	0	-2.1	-7.7	3.5
SFMBT1	0	1.2	-0.9	3.2
SEC23B	0	3	3.2	2.7
GPR26	1	11.3	22.8	-0.1
CHST3	0	2.1	17.1	-13
KANSL3	0	-9.2	-6.6	-11.9
LAMTOR1	0	0	-6	6
ELP6	0	0.7	5	-3.5
EIF3B	0	16.4	34	-1.2
CPSF7	0	1.1	0	2.2
RPS19BP1	0	15.2	15.8	14.6
NOP16	-1	-32.5	-24.1	-40.9
GATM	-1	10	34.2	-14.2
FIGLA	0	-5.1	-3.5	-6.6
LOC402072	0	-1.4	0.5	-3.3
PHC2	0	15.1	21.1	9
LOC401612	0	3.6	4.8	2.5
EIF2AK1	1	11.1	23.1	-0.8
GGN	0	16.3	11.1	21.6
SH3BP2	-1	-5.8	-14.3	2.7
GABRB3	0	5	8	2
OR2M3	-1	-6.1	2.5	-14.8
LINC02213	1	7.8	-4.8	20.5
CCP110	0	1.5	2	1.1
DEFB125	1	9.4	11.1	7.8
RETREG2	1	11.4	18.8	4.1
LOC283583	0	15.9	7.8	24
